# The list shows a part of the results.
# Amino acid sequences for entries named in this document (tags omitted). A change or cut given only in a name is not applied to a line headed by its entry.
# UniProt P15927: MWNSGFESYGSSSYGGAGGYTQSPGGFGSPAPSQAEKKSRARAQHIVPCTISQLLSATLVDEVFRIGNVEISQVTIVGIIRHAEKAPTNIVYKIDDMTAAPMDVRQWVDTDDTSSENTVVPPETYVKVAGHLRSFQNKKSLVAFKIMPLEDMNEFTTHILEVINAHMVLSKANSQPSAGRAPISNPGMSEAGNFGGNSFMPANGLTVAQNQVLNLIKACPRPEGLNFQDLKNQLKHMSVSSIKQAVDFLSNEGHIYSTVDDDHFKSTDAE
# Target: RPA2_P15927_49_AQHIVPCTISQLLSATLVDEVFR (UniProt P15927)
# Experiment: probe-labelled cysteine peptide fold change vs DMSO (competition) (log2 fold change); higher = less target engagement (more negative = stronger competition)
# Details: THP-1, incubation time: 4 h
# 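Further: competitive chemoproteomic profiling in live THP-1 cells with an iodoacetamide desthiobiotin (IA-DTB) probe, comparing probe-labelled peptide intensities in compound-treated cells against DMSO-treated controls.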
structure (smiles),measurement,setting,value
CC1Cc2ccccc2N1C(=O)C1CCCN(C(=O)CCl)C1 (mixture of isomers) [TRIM25 ligand 11 (diastereomer mixture)],probe-labelled cysteine peptide fold change,10 µM,0.0873
same,probe-labelled cysteine peptide fold change,50 µM,0.218
